Results are given in words; binding and its absence hold for the method and conditions named. In cells and extracts the contact can be indirect. Some results given as binding are weak or reduced against the parent protein; the word gives no strength. For some of these results: Sequences can lack the tags named with a protein.
Tests used:
[1] = target: T1, VRK1-HA (human VRK1, transfected) (human) (UniProt Q99986); test: co-IP; A549 cells transfected with Tip60-V5 and VRK1-HA; reciprocal immunoprecipitations from lysate (50 mM Tris-HCl pH 8.0, 1 mM EDTA, 150 mM NaCl, 1% triton X-100); immunoblot
T1 sequence: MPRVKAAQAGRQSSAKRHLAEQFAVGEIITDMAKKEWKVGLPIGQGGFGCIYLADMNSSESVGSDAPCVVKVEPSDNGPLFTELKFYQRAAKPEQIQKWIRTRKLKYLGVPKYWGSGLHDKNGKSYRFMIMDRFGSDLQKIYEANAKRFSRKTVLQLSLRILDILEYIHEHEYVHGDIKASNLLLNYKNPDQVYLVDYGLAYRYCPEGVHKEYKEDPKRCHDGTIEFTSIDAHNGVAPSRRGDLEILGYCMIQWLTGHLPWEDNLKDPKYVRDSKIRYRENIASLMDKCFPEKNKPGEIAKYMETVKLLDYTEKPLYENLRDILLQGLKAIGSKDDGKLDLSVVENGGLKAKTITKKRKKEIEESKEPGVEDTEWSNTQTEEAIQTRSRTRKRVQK

Amino acid sequences for entries named in this document (tags omitted).
UniProt Q92993: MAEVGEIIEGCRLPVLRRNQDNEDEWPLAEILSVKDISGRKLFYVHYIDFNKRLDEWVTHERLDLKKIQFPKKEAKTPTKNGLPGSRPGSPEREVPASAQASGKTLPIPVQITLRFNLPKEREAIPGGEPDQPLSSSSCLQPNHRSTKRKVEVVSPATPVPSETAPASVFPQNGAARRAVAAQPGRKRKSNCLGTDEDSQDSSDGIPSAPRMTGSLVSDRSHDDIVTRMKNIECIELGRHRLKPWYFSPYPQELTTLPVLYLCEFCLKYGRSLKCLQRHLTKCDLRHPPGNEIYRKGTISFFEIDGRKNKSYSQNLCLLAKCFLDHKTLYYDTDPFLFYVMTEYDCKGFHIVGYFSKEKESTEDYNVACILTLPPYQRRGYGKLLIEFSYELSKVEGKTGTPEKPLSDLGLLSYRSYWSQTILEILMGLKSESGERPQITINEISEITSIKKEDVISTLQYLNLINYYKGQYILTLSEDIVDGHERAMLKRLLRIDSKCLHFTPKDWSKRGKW

[2] = target: Tip60-V5 (human Tip60, transfected) (human) (UniProt Q92993); test: as above
[3] = target: endogenous Tip60 (human (endogenous in A549)) (UniProt Q92993); test: co-IP; endogenous Tip60 immunoprecipitated with an anti-Tip60 antibody (ab137518), endogenous VRK1 detected by immunoblot; cells with or without doxorubicin
[4] = target: Tip60-V5 (human Tip60, transfected) (human) (UniProt Q92993); test: co-IP; A549 cells transfected with Tip60-V5, 0.5% serum for 48 h, doxorubicin time course; Tip60 immunoprecipitated, endogenous VRK1 detected by immunoblot

## Tip60-V5 (human Tip60, transfected) (from UniProt Q92993 1-513) (enzyme)
[1]
  binding: binds

B1: VRK1-HA (human VRK1, transfected) (enzyme, UniProt Q99986 1-396)
chain: T1 sequence
[2]
  binding: binds

B2: endogenous VRK1 (enzyme, UniProt Q99986 1-396)
chain: T1 sequence
[3]
  binding: binds
[4]
  binding: binds
